Assay results reported in publication PMC11862924, “Phenylpyrazoles as Inhibitors of the m^6A RNA-Binding Protein YTHDF2” (JACS Au, 2025).

What was measured:
[1] = molecular target: T1, YTHDC2 YTH domain (UniProt Q9H6S0); assay: EMSA; conditions: 20 nM RNA, 10 uM YTHDC2 chosen; m6A at position 12; EMSA: 20 mM HEPES pH 8.2, 50 mM NaCl, 0.05% Triton X-100, 5% glycerol, 4 C, 0.5x TBE gel; recombinant protein; residues 1285-1424
T1 sequence (looked up): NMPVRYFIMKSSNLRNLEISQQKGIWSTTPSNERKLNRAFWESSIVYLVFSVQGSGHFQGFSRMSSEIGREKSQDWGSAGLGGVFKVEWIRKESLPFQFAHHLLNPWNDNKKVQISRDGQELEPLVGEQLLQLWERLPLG

[2] = molecular target: T2, YTHDF2 YTH domain (UniProt Q9Y5A9); assay: FP competition; conditions: against FAM-m6A RNA, no inhibitory activity; none; EMSA: 20 mM HEPES pH 8.2, 50 mM NaCl, 0.05% Triton X-100, 5% glycerol, 4 C, 0.5x TBE gel; recombinant …; residues 383-553; protein details: N-terminal His6 and GST; letters put together from the description
T2 sequence (looked up): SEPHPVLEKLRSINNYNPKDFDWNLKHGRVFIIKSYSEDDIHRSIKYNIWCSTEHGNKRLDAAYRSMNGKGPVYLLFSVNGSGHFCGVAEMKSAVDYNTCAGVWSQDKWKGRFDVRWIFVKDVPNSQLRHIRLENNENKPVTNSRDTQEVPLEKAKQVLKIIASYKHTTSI

Row | Sequence | binding result [1] | binding result [2]
1 | UUCUUCUGUGGACUGUG [FAM-17mer m6A RNA probe] | binds | –
2 | UUCUUCUGUGGACUGUG [unmethylated RNA (A RNA)] | – | no binding

Construct, isoform or probe ends are uncertain for at least one entry. For some assays here: Negatives hold for the conditions tested. Protein sequences can lack the tags named with them. For some assays here: At least one verdict rests on a figure or table, not on a statement of the authors.
